# Primary screen of a compound library

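Whole-cell growth test on Mycobacterium tuberculosis, read after 4 days in a medium based on cholesterol and the lipid DPPC; the read-out is not stated. Tested at 50 µM. Higher reads as more growth inhibition (inferred: compounds with an IC50 in retests scored well above the rest). About 69,000 compounds were tested under these conditions; 0.54% (about 370) showed 50% or more at least once.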

Results are given as percent effect.
How 0% and 100% were set is not recorded. Most values in the screen are low, and negative values occur.
Compounds were drawn at random from those tested, without regard to their results.
Two or more numbers in one place are separate tests of the same structure; such repeats can differ widely.

{"compound": "COCCNc1cc(-c2ccccc2C(=O)O)c2cc[nH]c2n1", "percent effect": 2.484}
{"compound": "Cc1cc(C)n(-c2ccc(C(=O)NCC(CO)Cc3cccs3)cc2)n1", "stereo": "centres unmarked", "percent effect": -15.55}
{"compound": "CN(C)C(=O)CCC[S+]([O-])Cc1ccc(F)c(F)c1", "stereo": "centres unmarked", "percent effect": "-3.206 and 12.38"}
{"compound": "[H][C@]12CC[C@]([H])(CN(c3cnccn3)C1)N(C(=O)c1snnc1C)C2", "percent effect": "-13.93 and -9.303"}
{"compound": "COc1ccccc1CC1CCCN(CCC(N)=O)C1", "stereo": "centres unmarked", "percent effect": 11.57}
{"compound": "Cc1ccc2c(n1)N(CC1CC1)CCN(C(=O)c1ccncc1F)C2.O=C(O)C(F)(F)F.O=C(O)C(F)(F)F", "percent effect": 2.757}
{"compound": "COCCN(C)c1nc(-c2ccncc2)nc2c1CCN(C(C)=O)C2", "percent effect": -3.885}
{"compound": "Cc1cc(CNC(=O)c2ccc(C(C)N3CCCCC3)o2)[nH]n1", "stereo": "centres unmarked", "percent effect": 3.191}
{"compound": "Brc1csc(CNCc2nnc3n2CCC3)c1", "percent effect": 9}
{"compound": "CC(=O)Nc1ccc(C(=O)N(C)Cc2ccc(F)cc2F)s1", "percent effect": 14.78}
{"compound": "CCOC(=O)CNC(=O)N1CCCC(CNC(=O)c2ccco2)C1", "stereo": "centres unmarked", "percent effect": -3.444}
{"compound": "Cc1nn(C)c(Cl)c1C1CCCN1C(=O)c1cnc[nH]1", "stereo": "centres unmarked", "percent effect": 3.363}
{"compound": "COc1cccc(CCC(=O)Nc2c(C)nn(C)c2C)c1OC", "percent effect": 16.27}
{"compound": "Cc1cnc(CN(Cc2ccccc2)CC(O)c2cccs2)cn1", "stereo": "centres unmarked", "percent effect": 44.57}
{"compound": "CCOC(=O)COc1ccc(C(C)=O)c(O)c1", "percent effect": 0.765}
{"compound": "Cc1noc(C)c1CNC(=O)N1CCCC(C)CC1", "stereo": "centres unmarked", "percent effect": "-3.139 and -1.127"}
{"compound": "CN(C)CCNC(=O)Cn1cnc2cc(NC(=O)C3CC3)ccc21", "percent effect": 11.02}
{"compound": "COCCNC(=O)c1ccc(C)c(-n2cccc2)c1", "percent effect": -14.22}
{"compound": "Cc1nc(CN2CCC3(CC2)NC(=O)CC3c2cccnc2)cs1", "stereo": "centres unmarked", "percent effect": "-10.39 and 0.2791"}
{"compound": "CCCc1n[nH]c(C2CN(C(=O)c3cc(F)ccc3OC)CCO2)n1", "stereo": "centres unmarked", "percent effect": -6.231}
{"compound": "CC(C)CCN(C(=O)CCn1cc(S(N)(=O)=O)cn1)C1CC1", "percent effect": 4.317}
{"compound": "COc1ccccc1OCCN1CCCC(c2cc(C(N)=O)[nH]n2)C1", "stereo": "centres unmarked", "percent effect": 2.59}
{"compound": "CNc1cc(C2CN(C(=O)c3cscn3)CCO2)nc(C)n1", "stereo": "centres unmarked", "percent effect": -12.79}
{"compound": "CCCS(=O)(=O)NCCn1ccc(-c2cccs2)n1", "percent effect": 1.755}
{"compound": "NC1C=C(C(F)(F)F)NC=C1c1ccc(Cl)cc1", "stereo": "centres unmarked", "percent effect": 2.768}
{"compound": "Cc1n[nH]cc1C(=O)N1CCCC(n2nnc3cc(F)ccc32)C1", "stereo": "centres unmarked", "percent effect": -3.38}
{"compound": "CCc1nnsc1C(=O)NCc1nnc2n1CCC2", "percent effect": -6.306}
{"compound": "O=C(NCCc1nnc2n1CCCCC2)N1CCC2(CCCC2)CC1", "percent effect": -9.015}
{"compound": "[H][C@@]12CN(S(C)(=O)=O)C[C@]1(C(=O)N(C)C)CCC21CCN(C(C)=O)CC1", "percent effect": -19.81}
{"compound": "CC1CCCN(c2ccccc2OCC(=O)N2CCOCC2)C1", "stereo": "centres unmarked", "percent effect": -3.139}
{"compound": "O=C(Cc1cccs1)N1CCC2(CCCN(CC3CCOCC3)C2)C1", "stereo": "centres unmarked", "percent effect": "-5.951 and 2.913"}
{"compound": "COc1ccc(CN(C)C(=O)CN2CC(n3cccn3)C2)cc1F", "percent effect": -11.28}
{"compound": "O=C(O)C(F)(F)F.[H][C@@]12CCN(CC3CC3)C[C@]1([H])[C@H](C(=O)NCc1ccco1)CCO2", "percent effect": -2.991}
{"compound": "O=C(C1CCS(=O)(=O)CC1)N1CCC(c2ccc(F)cc2)C1", "stereo": "centres unmarked", "percent effect": -21.39}
{"compound": "COc1c(C2CCCN2C(=O)c2ccc3cc[nH]c3c2)c(C)nn1C", "stereo": "centres unmarked", "percent effect": -0.5994}
{"compound": "CNc1ccnc(N2C[C@@H](C)[C@](O)(C3CCC3)C2)n1", "percent effect": 5.386}
{"compound": "Cc1c[nH]c(C2COCCN2S(=O)(=O)c2cn[nH]c2)n1", "stereo": "centres unmarked", "percent effect": 32.74}
{"compound": "Cc1cc(N2CCOCC2)ccc1NC(C)c1nc(C(C)C)no1", "stereo": "centres unmarked", "percent effect": -12.96}
{"compound": "O=C(c1cn(CC(=O)N2CCCCC2)c2ccccc12)C1CC1", "percent effect": "-13.49 and 4.932"}
{"compound": "Cc1ncncc1C(=O)N1CCCC(c2[nH]ncc2S(C)(=O)=O)C1", "stereo": "centres unmarked", "percent effect": -15.54}

Source: ChEMBL document CHEMBL3988442, “University of Dundee, Small-Polar-MMV Screening Library” (2021).